Experimental data: PubChem BioAssay AID1259405 (NCATS, 2018)
The whole screen tested about 50,000 reagents; below is a random part of them. About 4,000 of them (8%) count as active. 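Mouse siRNA library applied to hamster cells; one well for each siRNA.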 Reagent sequences are not shown.

Aim: 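Silenced genes that increase secreted GFP made by CHO cells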 (primary screen)
Cells: Chinese hamster CHO-K1 ovary cells with stable secreted eGFP expression
Knock-down reagent: single siRNA against mouse genes, 0.8 pmol siRNA per well (2 µl of 400 nM stock)
Timing: 3 days
Detection: 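Percent of the per-plate non-targeting control median for intracellular GFP per well by laser scanning cytometry and for cell viability by ATP luminescence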
Direction: GFP, % of control: higher = more GFP per well, higher productivity; viability (ATP), % of control: higher = more viable cells (more ATP)
Hit rule: 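a knock-down is called active if GFP reaches 120% or more of non-targeting control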

Marveld3 [SID363562139] → GFP, % of control: 74.6; viability (ATP), % of control: 89.6; activity call: inactive
Marveld3 [SID363567277] → GFP, % of control: 78.3; viability (ATP), % of control: 89.8; activity call: inactive
Marveld3 [SID363584634] → GFP, % of control: 66.7; viability (ATP), % of control: 36.1; activity call: inactive
Defb21 [SID363542356] → GFP, % of control: 81.4; viability (ATP), % of control: 82.8; activity call: inactive
Defb21 [SID363551847] → GFP, % of control: 67; viability (ATP), % of control: 41; activity call: inactive
Defb21 [SID363559452] → GFP, % of control: 55; viability (ATP), % of control: 63.8; activity call: inactive
Skint2 [SID363542759] → GFP, % of control: 76.8; viability (ATP), % of control: 88.9; activity call: inactive
Skint2 [SID363546276] → GFP, % of control: 131; viability (ATP), % of control: 78.9; activity call: active
Skint2 [SID363548032] → GFP, % of control: 71; viability (ATP), % of control: 91.2; activity call: inactive
Ankrd1 [SID363546508] → GFP, % of control: 120; viability (ATP), % of control: 97; activity call: inactive
Ankrd1 [SID363548264] → GFP, % of control: 72.3; viability (ATP), % of control: 65.6; activity call: inactive
Ankrd1 [SID363560442] → GFP, % of control: 101; viability (ATP), % of control: 86.9; activity call: inactive
Sra1 [SID363547732] → GFP, % of control: 27.6; viability (ATP), % of control: 22.6; activity call: inactive
Sra1 [SID363558501] → GFP, % of control: 119; viability (ATP), % of control: 96.3; activity call: inactive
Sra1 [SID363560259] → GFP, % of control: 70.3; viability (ATP), % of control: 85.2; activity call: inactive
Prss2 [SID363547496] → GFP, % of control: 94.1; viability (ATP), % of control: 97; activity call: inactive
Prss2 [SID363558265] → GFP, % of control: 79.4; viability (ATP), % of control: 94.1; activity call: inactive
Prss2 [SID363560023] → GFP, % of control: 95.7; viability (ATP), % of control: 96.9; activity call: inactive

Already shown: an excerpt of the list.
Ankrd1 [SID363548264] → GFP, % of control: 72.3; viability (ATP), % of control: 65.6; activity call: inactive
Ankrd1 [SID363560442] → GFP, % of control: 101; viability (ATP), % of control: 86.9; activity call: inactive
Sra1 [SID363547732] → GFP, % of control: 27.6; viability (ATP), % of control: 22.6; activity call: inactive
